Test results: the supplement of paper PMC8728848
This is one part of the list.

Tests used:
Assay in all cases: glycan array binding signal (z-score within array); higher = stronger binding
Details in all cases: glycan notation: IUPAC condensed, linker removed
[1] = target: Fuc(a1-2)Gal(b1-4)GlcNAc(b1-2)[Fuc(a1-2)Gal(b1-4)GlcNAc(b1-4)]Man(a1-3)[Fuc(a1-2)Gal(b1-4)GlcNAc(b1-2)Man(a1-6)]Man(b1-4)GlcNAc(b1-4)GlcNAc
How it was run: (§1)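 Glycan array data were curated from 3228 arrays in the Consortium for Functional Glycomics database and kept only where the protein sequence was available. Glycan names were converted to IUPAC-condensed notation, and columns mapping to the same glycan were averaged. The binding signal is a within-array Z-score, averaged across arrays of the same protein sequence at different concentrations or buffers and across linkers. Negative Z-scores can be read as non-binding.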

[2] = target: Fuc(a1-2)Gal(b1-4)GlcNAc(b1-3)Gal(b1-4)GlcNAc
How it was run: as §1

[3] = target: Fuc(a1-2)Gal(b1-4)GlcNAc(b1-3)Gal(b1-4)GlcNAc(b1-2)Man(a1-3)[Fuc(a1-2)Gal(b1-4)GlcNAc(b1-3)Gal(b1-4)GlcNAc(b1-2)Man(a1-6)]Man(b1-4)GlcNAc(b1-4)GlcNAc
How it was run: as §1

[4] = target: Fuc(a1-2)Gal(b1-4)GlcNAc(b1-3)Gal(b1-4)GlcNAc(b1-3)Gal(b1-4)GlcNAc
How it was run: as §1

[5] = target: Fuc(a1-2)Gal(b1-4)GlcNAc(b1-3)GalNAc
How it was run: as §1

[6] = target: Fuc(a1-2)Gal(b1-4)GlcNAc(b1-3)[Fuc(a1-2)Gal(b1-4)GlcNAc(b1-6)]GalNAc
How it was run: as §1

[7] = target: Fuc(a1-2)Gal(b1-4)GlcNAc(b1-3)[Fuc(a1-3)[Gal(b1-4)]GlcNAc(b1-6)]Gal(b1-4)Glc
How it was run: as §1

[8] = target: Fuc(a1-2)Gal(b1-4)GlcNAc(b1-6)GalNAc
How it was run: as §1

[9] = target: Fuc(a1-2)Gal(b1-4)GlcNAc6S
How it was run: as §1

[10] = target: Fuc(a1-2)Gal(b1-4)[Fuc(a1-3)]GlcNAc
How it was run: as §1

[11] = target: Fuc(a1-2)Gal(b1-4)[Fuc(a1-3)]GlcNAc(b1-2)Man(a1-3)[Fuc(a1-2)Gal(b1-4)[Fuc(a1-3)]GlcNAc(b1-2)Man(a1-6)]Man(b1-4)GlcNAc(b1-4)GlcNAc
How it was run: as §1

[12] = target: Fuc(a1-2)Gal(b1-4)[Fuc(a1-3)]GlcNAc(b1-2)Man(a1-3)[Fuc(a1-2)Gal(b1-4)[Fuc(a1-3)]GlcNAc(b1-2)Man(a1-6)]Man(b1-4)GlcNAc(b1-4)[Fuc(a1-6)]GlcNAc
How it was run: as §1

[13] = target: Fuc(a1-2)Gal(b1-4)[Fuc(a1-3)]GlcNAc(b1-2)[Fuc(a1-2)Gal(b1-4)[Fuc(a1-3)]GlcNAc(b1-4)]Man(a1-3)[Fuc(a1-2)Gal(b1-4)[Fuc(a1-3)]GlcNAc(b1-2)Man(a1-6)]Man(b1-4)GlcNAc(b1-4)GlcNAc
How it was run: as §1

[14] = target: Fuc(a1-2)Gal(b1-4)[Fuc(a1-3)]GlcNAc(b1-3)Gal(b1-4)[Fuc(a1-3)]GlcNAc
How it was run: as §1

[15] = target: Fuc(a1-2)Gal(b1-4)[Fuc(a1-3)]GlcNAc(b1-3)Gal(b1-4)[Fuc(a1-3)]GlcNAc(b1-3)Gal(b1-4)[Fuc(a1-3)]GlcNAc
How it was run: as §1

[16] = target: Fuc(a1-2)Gal(b1-4)[Fuc(a1-3)]GlcNAc(b1-3)GalNAc
How it was run: as §1

[17] = target: Fuc(a1-2)Gal(b1-4)[Fuc(a1-3)]GlcNAc(b1-3)[Neu5Ac(a2-6)Gal(b1-4)GlcNAc(b1-6)]Gal(b1-4)Glc
How it was run: as §1

[18] = target: Fuc(a1-2)Gal3S(b1-4)GlcNAc
How it was run: as §1

[19] = target: Fuc(a1-2)Gal6S(b1-3)GlcNAc
How it was run: as §1

[20] = target: Fuc(a1-2)Gal6S(b1-3)GlcNAc6S
How it was run: as §1

Fuc(a1-2)Gal6S(b1-4)Glc = target: Fuc(a1-2)Gal6S(b1-4)Glc
How it was run: as §1

[21] = target: Fuc(a1-2)Gal6S(b1-4)Glc6S
How it was run: as §1

[22] = target: Fuc(a1-2)Gal6S(b1-4)GlcNAc
How it was run: as §1

Fuc(a1-2)[Gal(a1-3)]Gal = target: Fuc(a1-2)[Gal(a1-3)]Gal
How it was run: as §1

[23] = target: Fuc(a1-2)[Gal(a1-3)]Gal(b1-3)GalNAc
How it was run: as §1

[24] = target: Fuc(a1-2)[Gal(a1-3)]Gal(b1-3)GalNAc(b1-3)Gal(a1-4)Gal(b1-4)Glc
How it was run: as §1

[25] = target: Fuc(a1-2)[Gal(a1-3)]Gal(b1-3)GlcNAc
How it was run: as §1

[26] = target: Fuc(a1-2)[Gal(a1-3)]Gal(b1-3)GlcNAc(b1-2)Man(a1-3)[Fuc(a1-2)[Gal(a1-3)]Gal(b1-3)GlcNAc(b1-2)Man(a1-6)]Man(b1-4)GlcNAc(b1-4)GlcNAc
How it was run: as §1

[27] = target: Fuc(a1-2)[Gal(a1-3)]Gal(b1-3)GlcNAc(b1-2)Man(a1-3)[Fuc(a1-2)[Gal(a1-3)]Gal(b1-3)GlcNAc(b1-2)Man(a1-6)]Man(b1-4)GlcNAc(b1-4)[Fuc(a1-6)]GlcNAc
How it was run: as §1

[28] = target: Fuc(a1-2)[Gal(a1-3)]Gal(b1-3)GlcNAc(b1-3)GalNAc
How it was run: as §1

In the case of KILRGVCKKIMRTFLRRISKDILTGKK [NK2 (Sus scrofa)], the “glycan array binding signal (z-score)” value [1] is reported as 0.417, the “glycan array binding signal (z-score)” value [2] is reported as -0.437 and the “glycan array binding signal (z-score)” value [3] is reported as -0.279. The “glycan array binding signal (z-score)” value [4] was 0.328, the “glycan array binding signal (z-score)” value [5] was 0.329 and the “glycan array binding signal (z-score)” value [6] was 0.298. For the same binder, the “glycan array binding signal (z-score)” value [7] was -0.934, the “glycan array binding signal (z-score)” value [8] was -0.368 and the “glycan array binding signal (z-score)” value [9] was 1.15. The “glycan array binding signal (z-score)” value [10] was -0.856, the “glycan array binding signal (z-score)” value [11] was 0.271 and the “glycan array binding signal (z-score)” value [12] was -0.551. The “glycan array binding signal (z-score)” value [13] was 0.322, the “glycan array binding signal (z-score)” value [14] was -1.24 and the “glycan array binding signal (z-score)” value [15] was 0.193. The “glycan array binding signal (z-score)” value [16] was 0.765, the “glycan array binding signal (z-score)” value [17] was 0.725 and the “glycan array binding signal (z-score)” value [18] was -1.68. The “glycan array binding signal (z-score)” value [19] was 1.09, the “glycan array binding signal (z-score)” value [20] was 2.03 and the “glycan array binding signal (z-score)” value (Fuc(a1-2)Gal6S(b1-4)Glc) was 0.092. The “glycan array binding signal (z-score)” value [21] was 2.24, the “glycan array binding signal (z-score)” value [22] was 1.7 and the “glycan array binding signal (z-score)” value (Fuc(a1-2)[Gal(a1-3)]Gal) was -0.111. The “glycan array binding signal (z-score)” value [23] was -0.349, the “glycan array binding signal (z-score)” value [24] was 1.23 and the “glycan array binding signal (z-score)” value [25] was -0.528. The “glycan array binding signal (z-score)” value [26] was -1.04, the “glycan array binding signal (z-score)” value [27] was 0.527 and the “glycan array binding signal (z-score)” value [28] was 0.068.
